Results published in publication doi:10.1101/2023.06.23.545108.
No constants are given. Whether binding was seen depends on the method and setting. Binding seen in cells or lysates may run through a third protein. Some entries that bind do so weakly or less than the wild type. For part of these data: Tags and fused reporters may be left off the sequences shown.

Amino acid sequences for entries named in this document (tags omitted).
UniProt Q15717, whole entry: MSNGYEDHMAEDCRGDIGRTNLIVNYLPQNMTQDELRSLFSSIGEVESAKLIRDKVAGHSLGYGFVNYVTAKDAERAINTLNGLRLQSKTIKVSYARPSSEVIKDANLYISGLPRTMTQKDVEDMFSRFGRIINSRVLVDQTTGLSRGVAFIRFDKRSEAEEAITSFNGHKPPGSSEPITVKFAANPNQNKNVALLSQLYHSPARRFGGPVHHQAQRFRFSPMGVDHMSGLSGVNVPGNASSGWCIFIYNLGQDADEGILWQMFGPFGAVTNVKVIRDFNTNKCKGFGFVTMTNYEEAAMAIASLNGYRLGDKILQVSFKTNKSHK
UniProt Q04206, whole entry: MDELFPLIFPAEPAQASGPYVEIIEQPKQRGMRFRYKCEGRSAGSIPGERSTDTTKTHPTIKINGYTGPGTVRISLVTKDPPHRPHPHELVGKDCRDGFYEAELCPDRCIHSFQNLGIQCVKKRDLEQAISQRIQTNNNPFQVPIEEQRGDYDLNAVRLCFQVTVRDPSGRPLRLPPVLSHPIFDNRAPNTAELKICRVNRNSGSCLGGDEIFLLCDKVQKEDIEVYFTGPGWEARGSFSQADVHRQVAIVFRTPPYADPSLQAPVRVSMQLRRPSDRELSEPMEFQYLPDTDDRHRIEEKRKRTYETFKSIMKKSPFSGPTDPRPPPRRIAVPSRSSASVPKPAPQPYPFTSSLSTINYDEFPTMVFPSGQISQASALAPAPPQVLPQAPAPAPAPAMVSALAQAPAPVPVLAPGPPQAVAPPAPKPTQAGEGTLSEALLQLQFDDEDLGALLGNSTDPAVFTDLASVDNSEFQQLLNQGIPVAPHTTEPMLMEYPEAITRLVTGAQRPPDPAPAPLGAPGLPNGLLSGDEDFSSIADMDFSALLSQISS
UniProt Q8N884, whole entry: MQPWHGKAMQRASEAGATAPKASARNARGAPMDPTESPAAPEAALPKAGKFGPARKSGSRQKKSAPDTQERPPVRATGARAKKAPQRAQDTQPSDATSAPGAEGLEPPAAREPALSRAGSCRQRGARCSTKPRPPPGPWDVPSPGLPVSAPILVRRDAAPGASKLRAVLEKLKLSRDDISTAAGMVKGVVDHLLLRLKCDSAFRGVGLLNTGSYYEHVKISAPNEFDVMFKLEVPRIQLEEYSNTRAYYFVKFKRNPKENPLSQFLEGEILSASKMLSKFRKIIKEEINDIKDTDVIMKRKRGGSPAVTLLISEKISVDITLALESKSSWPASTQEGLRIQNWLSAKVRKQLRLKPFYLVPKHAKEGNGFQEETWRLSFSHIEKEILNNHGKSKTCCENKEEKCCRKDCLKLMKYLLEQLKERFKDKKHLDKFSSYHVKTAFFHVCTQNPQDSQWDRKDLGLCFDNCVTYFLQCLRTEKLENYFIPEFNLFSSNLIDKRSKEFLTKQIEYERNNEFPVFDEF

Key:
[1] = biological target: T1, hnRNPM-GFP (heterogeneous nuclear ribonucleoprotein M, C-terminally GFP-tagged) (UniProt P52272); assay: co-IP
T1 sequence: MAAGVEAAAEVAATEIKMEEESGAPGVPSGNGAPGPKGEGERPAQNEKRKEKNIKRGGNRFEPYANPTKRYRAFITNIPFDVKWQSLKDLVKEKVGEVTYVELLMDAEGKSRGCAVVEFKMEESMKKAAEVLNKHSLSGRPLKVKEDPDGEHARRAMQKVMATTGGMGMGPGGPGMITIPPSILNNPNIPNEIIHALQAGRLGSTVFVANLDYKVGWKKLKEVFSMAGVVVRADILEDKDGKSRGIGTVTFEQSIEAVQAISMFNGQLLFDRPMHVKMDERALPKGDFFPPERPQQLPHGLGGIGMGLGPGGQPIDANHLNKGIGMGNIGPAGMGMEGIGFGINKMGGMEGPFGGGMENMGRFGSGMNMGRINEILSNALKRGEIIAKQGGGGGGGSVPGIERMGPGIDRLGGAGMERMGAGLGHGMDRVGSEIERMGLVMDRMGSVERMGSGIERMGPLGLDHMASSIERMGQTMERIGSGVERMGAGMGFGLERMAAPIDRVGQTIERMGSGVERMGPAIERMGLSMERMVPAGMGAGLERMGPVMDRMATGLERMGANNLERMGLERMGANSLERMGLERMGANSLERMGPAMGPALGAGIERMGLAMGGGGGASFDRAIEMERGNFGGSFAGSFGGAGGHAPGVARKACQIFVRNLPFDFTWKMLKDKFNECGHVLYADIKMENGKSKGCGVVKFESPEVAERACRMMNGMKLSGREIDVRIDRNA

[2] = biological target: T1, hnRNPM-GFP (heterogeneous nuclear ribonucleoprotein M, C-terminally GFP-tagged); assay: proximity ligation
ELAVL1-FLAG = ELAVL1-FLAG (UniProt Q15717); assay: co-IP

| Substance | binding [1] | binding [2] | binding (ELAVL1-FLAG) |
| --- | --- | --- | --- |
| ELAV-like protein 1 (ELAVL1), endogenous in THP-1 (from UniProt Q15717 1-326) | binds | binds |  |
| NF-κB p65 phosphorylated at Ser536 (NF-κB pp65-Ser536), endogenous in THP-1 (from UniProt Q04206 1-551) | binds |  |  |
| NF-κB p65, endogenous in HEK293FT (from UniProt Q04206 1-551) |  |  | binds |
| NF-κB p65, endogenous in THP-1 (from UniProt Q04206 1-551) | binds |  |  |
| cyclic GMP-AMP synthase (cGAS), endogenous in THP-1 (from UniProt Q8N884 1-522) | no binding |  |  |
